Assay results reported in publication PMC5801490.
Results are given in words; binding and its absence hold for the method and conditions named. In cells and extracts the contact can be indirect. Some entries that bind do so weakly or less than the wild type. Sequences can lack the tags named with a protein.

By UniProt entry, the sequences of proteins in these tests, tags left out. Residues count along the entry.
UniProt O43157, residues 20-2135: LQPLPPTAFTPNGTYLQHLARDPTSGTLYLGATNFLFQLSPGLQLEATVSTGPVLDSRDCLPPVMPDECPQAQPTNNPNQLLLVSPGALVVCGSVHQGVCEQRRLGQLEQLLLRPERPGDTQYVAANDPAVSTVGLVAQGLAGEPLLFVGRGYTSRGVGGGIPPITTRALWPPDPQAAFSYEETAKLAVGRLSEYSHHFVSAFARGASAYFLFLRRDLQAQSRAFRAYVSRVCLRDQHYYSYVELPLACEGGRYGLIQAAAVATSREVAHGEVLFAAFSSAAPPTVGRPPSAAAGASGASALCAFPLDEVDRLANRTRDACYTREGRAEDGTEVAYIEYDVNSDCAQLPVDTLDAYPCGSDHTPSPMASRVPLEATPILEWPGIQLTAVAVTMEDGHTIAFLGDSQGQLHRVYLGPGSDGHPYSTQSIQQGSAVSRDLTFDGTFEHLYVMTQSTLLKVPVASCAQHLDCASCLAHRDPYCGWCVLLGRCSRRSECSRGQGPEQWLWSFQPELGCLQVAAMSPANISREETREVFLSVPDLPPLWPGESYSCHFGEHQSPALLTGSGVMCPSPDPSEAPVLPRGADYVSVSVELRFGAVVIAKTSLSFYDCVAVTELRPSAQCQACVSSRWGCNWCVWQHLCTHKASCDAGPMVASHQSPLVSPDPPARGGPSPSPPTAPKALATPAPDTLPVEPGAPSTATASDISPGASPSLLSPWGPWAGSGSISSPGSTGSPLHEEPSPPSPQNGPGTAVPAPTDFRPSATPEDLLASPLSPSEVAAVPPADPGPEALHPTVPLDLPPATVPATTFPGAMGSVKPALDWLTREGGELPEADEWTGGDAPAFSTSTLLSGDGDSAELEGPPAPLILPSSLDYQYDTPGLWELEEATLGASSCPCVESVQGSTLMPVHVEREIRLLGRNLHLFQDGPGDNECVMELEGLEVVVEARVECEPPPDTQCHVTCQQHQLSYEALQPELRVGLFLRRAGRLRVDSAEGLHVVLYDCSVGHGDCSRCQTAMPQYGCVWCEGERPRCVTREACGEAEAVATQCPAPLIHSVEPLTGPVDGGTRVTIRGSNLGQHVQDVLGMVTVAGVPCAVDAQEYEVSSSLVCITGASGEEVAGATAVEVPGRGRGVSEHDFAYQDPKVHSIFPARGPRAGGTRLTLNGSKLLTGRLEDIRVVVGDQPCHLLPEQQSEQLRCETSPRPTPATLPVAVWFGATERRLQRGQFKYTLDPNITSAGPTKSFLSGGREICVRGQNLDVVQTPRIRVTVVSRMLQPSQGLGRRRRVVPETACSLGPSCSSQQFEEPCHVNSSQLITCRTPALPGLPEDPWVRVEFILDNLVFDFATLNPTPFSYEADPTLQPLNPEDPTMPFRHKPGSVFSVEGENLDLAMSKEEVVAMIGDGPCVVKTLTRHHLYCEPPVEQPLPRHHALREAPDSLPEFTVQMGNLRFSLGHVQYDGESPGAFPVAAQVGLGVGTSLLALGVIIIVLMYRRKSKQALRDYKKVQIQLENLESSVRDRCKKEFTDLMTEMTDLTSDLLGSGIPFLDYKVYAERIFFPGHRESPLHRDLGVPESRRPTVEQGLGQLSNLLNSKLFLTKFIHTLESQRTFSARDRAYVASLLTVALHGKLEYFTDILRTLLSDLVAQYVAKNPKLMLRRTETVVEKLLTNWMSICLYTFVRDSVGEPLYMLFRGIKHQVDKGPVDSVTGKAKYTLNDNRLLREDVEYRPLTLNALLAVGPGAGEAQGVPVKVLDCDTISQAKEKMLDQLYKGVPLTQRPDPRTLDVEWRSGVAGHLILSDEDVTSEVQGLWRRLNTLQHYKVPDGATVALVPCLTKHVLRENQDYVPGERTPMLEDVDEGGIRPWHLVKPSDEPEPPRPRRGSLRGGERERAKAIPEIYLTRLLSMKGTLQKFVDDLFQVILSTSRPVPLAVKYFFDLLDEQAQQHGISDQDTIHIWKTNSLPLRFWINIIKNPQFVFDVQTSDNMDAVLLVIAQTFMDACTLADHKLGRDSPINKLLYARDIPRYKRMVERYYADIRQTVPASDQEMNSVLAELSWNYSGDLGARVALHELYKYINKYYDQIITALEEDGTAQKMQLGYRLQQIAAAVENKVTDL

Key:
[1] = molecular target: Plexin B1 (human (endogenous in DU145)) (UniProt O43157); experiment: proximity ligation; DU145 cells treated with B1SP or rhIgGFc and stimulated with SEMA3C; interactions/cell; only the binder purified
[2] = molecular target: Plexin B1 (human (endogenous in DU145)) (UniProt O43157); experiment: proximity ligation; DU145 cells treated with the recombinant Fc fusion protein (SEMA3C:Fc or B1SP) or rhIgG1Fc as control; interactions/cell; reports two proteins less than 40 nm apart; only the binder purified

B1: full-length recombinant SEMA3C-Fc fusion protein (Fc fusion, UniProt Q99985 21-751)
chain: GSSQPQARVYLTFDELRETKTSEYFSLSHHPLDYRILLMDEDQDRIYVGSKDHILSLNINNISQEALSVFWPASTIKVEECKMAGKDPTHGCGNFVRVIQTFNRTHLYVCGSGAFSPVCTYLNRGRRSEDQVFMIDSKCESGKGRCSFNPNVNTVSVMINEELFSGMYIDFMGTDAAIFRSLTKRNAVRTDQHNSKWLSEPMFVDAHVIPDGTDPNDAKVYFFFKEKLTDNNRSTKQIHSMIARICPNDTGGLRSLVNKWTTFLKARLVCSVTDEDGPETHFDELEDVFLLETDNPRTTLVYGIFTTSSSVFKGSAVCVYHLSDIQTVFNGPFAHKEGPNHQLISYQGRIPYPRPGTCPGGAFTPNMRTTKEFPDDVVTFIRNHPLMYNSIYPIHKRPLIVRIGTDYKYTKIAVDRVNAADGRYHVLFLGTDRGTVQKVVVLPTNNSVSGELILEELEVFKNHAPITTMKISSKKQQLYVSSNEGVSQVSLHRCHIYGTACADCCLARDPYCAWDGHSCSRFYPTGKRRSRRQDVRHGNPLTQCRGFNLKAYRNAAEIVQYGVKNNTTFLECAPKSPQASIKWLLQKDKDRRKEVKLNERIIATSQGLLIRSVQGSDQGLYHCIATENSFKQTIAKINFKVLDSEMVAVVTDKWSPWTWASSVRALPFHPKDIMGAFSHSEMQMINQYCKDTRQQHQQGDESQKMRGDYGKLKALINSRKSRNRRNQLPES
For B1, the binding [1] was “binds” and the binding [2] was “binds”.
